Experimental data reported in PMC11171731.
No constants are given. Whether binding was seen depends on the method and setting. In cells and extracts the contact can be indirect. Binding can be weak; no strength is given.

Chains of the proteins cited; added tags and fusions are not shown. Lines headed by an entry give the natural chain unless they say otherwise; changes in a name come on top.
UniProt Q01970: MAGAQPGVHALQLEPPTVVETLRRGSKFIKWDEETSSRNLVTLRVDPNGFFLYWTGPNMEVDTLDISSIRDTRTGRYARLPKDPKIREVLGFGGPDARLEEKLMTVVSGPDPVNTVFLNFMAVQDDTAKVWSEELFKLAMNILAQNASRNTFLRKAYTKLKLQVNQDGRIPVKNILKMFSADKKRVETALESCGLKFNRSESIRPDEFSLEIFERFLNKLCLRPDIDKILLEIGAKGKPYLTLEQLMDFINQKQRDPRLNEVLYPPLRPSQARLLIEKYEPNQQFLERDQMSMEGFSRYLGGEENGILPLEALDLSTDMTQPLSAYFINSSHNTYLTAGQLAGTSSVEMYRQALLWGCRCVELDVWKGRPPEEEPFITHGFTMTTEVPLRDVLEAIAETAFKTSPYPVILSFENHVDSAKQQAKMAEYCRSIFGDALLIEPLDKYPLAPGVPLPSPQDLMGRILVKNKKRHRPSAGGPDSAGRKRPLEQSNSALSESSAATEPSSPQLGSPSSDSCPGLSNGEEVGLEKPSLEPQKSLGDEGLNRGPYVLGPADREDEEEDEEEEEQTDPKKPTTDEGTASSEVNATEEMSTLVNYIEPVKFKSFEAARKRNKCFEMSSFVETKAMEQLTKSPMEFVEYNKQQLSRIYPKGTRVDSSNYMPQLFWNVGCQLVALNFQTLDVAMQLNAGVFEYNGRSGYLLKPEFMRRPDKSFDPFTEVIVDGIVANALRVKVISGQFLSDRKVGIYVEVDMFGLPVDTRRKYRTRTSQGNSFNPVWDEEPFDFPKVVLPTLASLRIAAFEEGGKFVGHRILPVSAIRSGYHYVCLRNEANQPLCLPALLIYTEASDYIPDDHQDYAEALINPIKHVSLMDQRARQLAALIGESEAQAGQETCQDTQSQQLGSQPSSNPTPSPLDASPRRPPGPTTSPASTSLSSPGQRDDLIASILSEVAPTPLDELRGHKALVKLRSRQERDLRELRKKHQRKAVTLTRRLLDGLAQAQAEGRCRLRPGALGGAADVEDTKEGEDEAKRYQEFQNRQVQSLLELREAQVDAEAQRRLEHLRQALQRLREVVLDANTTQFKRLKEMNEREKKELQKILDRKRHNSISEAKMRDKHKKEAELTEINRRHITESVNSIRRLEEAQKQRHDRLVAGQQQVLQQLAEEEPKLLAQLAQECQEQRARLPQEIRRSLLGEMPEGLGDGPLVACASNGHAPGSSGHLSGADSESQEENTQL
UniProt O14641: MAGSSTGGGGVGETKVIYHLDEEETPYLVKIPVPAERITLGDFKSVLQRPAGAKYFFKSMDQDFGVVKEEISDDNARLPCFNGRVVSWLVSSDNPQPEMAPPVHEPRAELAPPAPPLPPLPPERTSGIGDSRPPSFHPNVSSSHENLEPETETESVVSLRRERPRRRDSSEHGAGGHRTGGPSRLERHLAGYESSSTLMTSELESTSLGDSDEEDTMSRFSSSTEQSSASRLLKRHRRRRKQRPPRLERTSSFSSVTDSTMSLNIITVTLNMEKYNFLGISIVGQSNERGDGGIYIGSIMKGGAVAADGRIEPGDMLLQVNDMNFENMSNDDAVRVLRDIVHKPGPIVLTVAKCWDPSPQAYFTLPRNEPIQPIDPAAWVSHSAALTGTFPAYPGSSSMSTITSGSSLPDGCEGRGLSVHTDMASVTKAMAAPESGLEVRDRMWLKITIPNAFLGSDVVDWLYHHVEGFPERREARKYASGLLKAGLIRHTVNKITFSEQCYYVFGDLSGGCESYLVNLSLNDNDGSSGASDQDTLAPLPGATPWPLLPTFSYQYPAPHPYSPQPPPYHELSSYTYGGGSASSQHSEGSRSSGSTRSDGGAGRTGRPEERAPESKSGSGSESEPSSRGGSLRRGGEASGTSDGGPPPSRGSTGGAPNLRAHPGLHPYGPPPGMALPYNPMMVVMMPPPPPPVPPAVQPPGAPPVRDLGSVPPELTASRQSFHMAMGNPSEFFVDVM
UniProt P35222: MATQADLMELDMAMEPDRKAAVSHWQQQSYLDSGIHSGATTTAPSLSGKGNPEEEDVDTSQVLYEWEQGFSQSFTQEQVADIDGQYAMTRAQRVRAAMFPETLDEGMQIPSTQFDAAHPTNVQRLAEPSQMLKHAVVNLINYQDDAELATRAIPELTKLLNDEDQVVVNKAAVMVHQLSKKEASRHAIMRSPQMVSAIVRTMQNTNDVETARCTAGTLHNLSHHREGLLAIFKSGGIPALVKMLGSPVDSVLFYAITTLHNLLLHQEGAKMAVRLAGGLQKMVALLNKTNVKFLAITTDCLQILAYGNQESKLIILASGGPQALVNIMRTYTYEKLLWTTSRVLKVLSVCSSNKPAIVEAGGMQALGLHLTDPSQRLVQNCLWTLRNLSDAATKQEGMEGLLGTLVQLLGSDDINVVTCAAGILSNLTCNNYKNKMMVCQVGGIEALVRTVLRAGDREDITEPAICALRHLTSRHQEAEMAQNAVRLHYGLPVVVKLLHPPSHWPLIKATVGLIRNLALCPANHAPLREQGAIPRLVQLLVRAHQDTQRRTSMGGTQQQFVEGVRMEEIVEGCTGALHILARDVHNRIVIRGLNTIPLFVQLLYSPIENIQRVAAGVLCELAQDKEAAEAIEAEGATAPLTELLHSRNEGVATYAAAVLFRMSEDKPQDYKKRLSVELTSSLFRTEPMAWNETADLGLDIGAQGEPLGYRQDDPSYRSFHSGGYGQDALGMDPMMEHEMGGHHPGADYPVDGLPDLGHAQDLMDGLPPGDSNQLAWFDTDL
UniProt P49841: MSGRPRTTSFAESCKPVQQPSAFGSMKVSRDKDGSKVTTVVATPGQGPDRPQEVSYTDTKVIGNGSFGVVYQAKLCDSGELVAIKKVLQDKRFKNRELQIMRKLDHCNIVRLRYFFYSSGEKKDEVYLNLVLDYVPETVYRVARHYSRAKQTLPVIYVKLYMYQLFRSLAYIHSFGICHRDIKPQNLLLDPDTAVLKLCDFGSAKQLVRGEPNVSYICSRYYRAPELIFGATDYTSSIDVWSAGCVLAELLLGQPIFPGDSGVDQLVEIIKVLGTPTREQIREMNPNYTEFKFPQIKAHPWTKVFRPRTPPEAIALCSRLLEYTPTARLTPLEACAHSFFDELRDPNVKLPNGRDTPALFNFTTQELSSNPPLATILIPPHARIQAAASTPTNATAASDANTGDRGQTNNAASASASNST

Assays:
[1] = target: GST fusion of the PH-EF domain of PLC-β3 (UniProt Q01970); assay: pull-down; GST fusions of PLC-β3 domains as bait; source of the prey proteins and conditions not told
[2] = target: GST fusion of the split catalytic domains of PLC-β3 (UniProt Q01970); assay: as above

| Molecule | binding [1] | binding [2] |
| --- | --- | --- |
| Dvl2 (from UniProt O14641 1-736) | binds | binds |
| β-catenin (from UniProt P35222 1-781) | binds |  |
| GSK3β (from UniProt P49841 1-420) (enzyme) | binds | binds |
| Lgr5 (receptor, UniProt O75473 22-907) GSSPRSGVLLRGCPTHCHCEPDGRMLLRVDCSDLGLSELPSNLSVFTSYLDLSMNNISQLLPNPLPSLRFLEELRLAGNALTYIPKGAFTGLYSLKVLMLQNNQLRHVPTEALQNLRSLQSLRLDANHISYVPPSCFSGLHSLRHLWLDDNALTEIPVQAFRSLSALQAMTLALNKIHHIPDYAFGNLSSLVVLHLHNNRIHSLGKKCFDGLHSLETLDLNYNNLDEFPTAIRTLSNLKELGFHSNNIRSIPEKAFVGNPSLITIHFYDNPIQFVGRSAFQHLPELRTLTLNGASQITEFPDLTGTANLESLTLTGAQISSLPQTVCNQLPNLQVLDLSYNLLEDLPSFSVCQKLQKIDLRHNEIYEIKVDTFQQLLSLRSLNLAWNKIAIIHPNAFSTLPSLIKLDLSSNLLSSFPITGLHGLTHLKLTGNHALQSLISSENFPELKVIEMPYAYQCCAFGVCENAYKISNQWNKGDNSSMDDLHKKDAGMFQAQDERDLEDFLLDFEEDLKALHSVQCSPSPGPFKPCEHLLDGWLIRIGVWTIAVLALTCNALVTSTVFRSPLYISPIKLLIGVIAAVNMLTGVSSAVLAGVDAFTFGSFARHGAWWENGVGCHVIGFLSIFASESSVFLLTLAALERGFSVKYSAKFETKAPFSSLKVIILLCALLALTMAAVPLLGGSKYGASPLCLPLPFGEPSTMGYMVALILLNSLCFLMMTIAYTKLYCNLDKGDLENIWDCSMVKHIALLLFTNCILNCPVAFLSFSSLINLTFISPEVIKFILLVVVPLPACLNPLLYILFNPHFKEDLVSLRKQTYVWTRSKHPSLMSINSDDVEKQSCDSTQALVTFTSSSITYDLPPSSVPSPAYPVTESCHLSSVAFVPCL | binds |  |
